Results are given in words; binding and its absence hold for the method and conditions named. In cells and extracts the contact can be indirect. Some results given as binding are weak or reduced against the parent protein; the word gives no strength.
Columns and labels:
[1] = target: HA-c-Myc (UniProt P01106); experiment: co-IP; HA-c-Myc and Flag-FBW7 co-transfected into 293T cells for 48 h; whole-cell extract (Pierce IP Lysis Buffer) incubated with HA antibody or Flag antibody and agarose A/G beads; western blot; xanthohumol treatment according to the text
[2] = target: FBW7 (endogenous, U87 cells) (human (endogenous in U87)) (UniProt Q969H0); experiment: co-IP; endogenous proteins; U87 cells treated with or without xanthohumol; whole-cell lysate incubated with FBW7 antibody or c-Myc antibody and agarose A/G beads; western blot

Protein sequences, listed by entry. Tags and fused reporters are not part of them.
UniProt P01106: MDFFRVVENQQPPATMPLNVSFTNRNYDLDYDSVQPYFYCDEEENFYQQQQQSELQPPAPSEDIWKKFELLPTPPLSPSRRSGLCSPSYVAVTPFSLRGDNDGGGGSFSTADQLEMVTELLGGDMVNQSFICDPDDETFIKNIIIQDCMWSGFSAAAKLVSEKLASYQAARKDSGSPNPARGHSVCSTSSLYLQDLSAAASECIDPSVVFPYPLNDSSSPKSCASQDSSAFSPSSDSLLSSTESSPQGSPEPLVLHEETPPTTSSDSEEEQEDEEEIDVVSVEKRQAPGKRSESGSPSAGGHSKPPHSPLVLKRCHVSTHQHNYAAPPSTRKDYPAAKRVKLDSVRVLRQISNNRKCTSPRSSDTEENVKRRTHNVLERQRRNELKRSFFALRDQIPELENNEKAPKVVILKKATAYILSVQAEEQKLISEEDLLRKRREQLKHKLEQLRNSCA
UniProt Q969H0: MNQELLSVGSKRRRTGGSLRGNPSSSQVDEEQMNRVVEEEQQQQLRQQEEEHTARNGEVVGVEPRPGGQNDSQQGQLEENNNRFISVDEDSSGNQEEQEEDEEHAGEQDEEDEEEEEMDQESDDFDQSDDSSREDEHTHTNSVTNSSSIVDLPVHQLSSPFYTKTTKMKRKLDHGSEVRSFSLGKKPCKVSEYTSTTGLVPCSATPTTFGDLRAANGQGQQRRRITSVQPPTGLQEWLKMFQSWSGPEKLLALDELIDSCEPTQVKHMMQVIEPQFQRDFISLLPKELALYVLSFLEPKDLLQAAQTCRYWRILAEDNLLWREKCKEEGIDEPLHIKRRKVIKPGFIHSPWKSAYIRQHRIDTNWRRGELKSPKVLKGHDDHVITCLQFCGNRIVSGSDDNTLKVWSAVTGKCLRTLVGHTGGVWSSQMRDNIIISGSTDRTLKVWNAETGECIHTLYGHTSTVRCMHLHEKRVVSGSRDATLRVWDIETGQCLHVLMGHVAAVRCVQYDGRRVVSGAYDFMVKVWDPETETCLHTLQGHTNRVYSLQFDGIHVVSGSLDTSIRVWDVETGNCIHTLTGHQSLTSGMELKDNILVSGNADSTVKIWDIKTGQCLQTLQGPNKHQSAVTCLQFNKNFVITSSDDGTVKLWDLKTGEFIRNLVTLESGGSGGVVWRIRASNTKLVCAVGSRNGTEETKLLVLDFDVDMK

binding [1]	binding [2]	Substance
binds		Flag-FBW7 (from UniProt Q969H0 1-707)
	binds	c-Myc (endogenous, U87 cells) (from UniProt P01106 1-454)

Reference: PMC7196271
